Where a chain is given by its changes, count along the chain named. These are yes or no findings as the source states them, for the method shown. Some binding calls cover weakened binding; strength is not graded here.

In test [1] the target is T1, CRTH2R (UniProt Q9Y5Y4).
T1 sequence (looked up): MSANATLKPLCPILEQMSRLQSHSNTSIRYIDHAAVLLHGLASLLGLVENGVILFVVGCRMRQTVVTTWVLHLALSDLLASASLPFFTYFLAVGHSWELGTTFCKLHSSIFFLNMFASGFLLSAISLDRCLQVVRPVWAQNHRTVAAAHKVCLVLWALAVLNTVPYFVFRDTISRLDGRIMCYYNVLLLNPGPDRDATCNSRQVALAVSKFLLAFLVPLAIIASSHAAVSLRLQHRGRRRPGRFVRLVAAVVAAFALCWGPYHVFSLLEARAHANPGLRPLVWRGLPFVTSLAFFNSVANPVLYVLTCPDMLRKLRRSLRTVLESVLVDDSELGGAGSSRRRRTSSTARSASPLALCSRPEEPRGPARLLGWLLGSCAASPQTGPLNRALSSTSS
Put plainly: flow cytometry, CRTH2R cells against parent cells (RL1-A APC against BL1-A FITC). In general terms: In flow cytometry, cells or beads pass a laser one at a time.

Test [2] addresses T1, CRTH2R. In words: flow cytometry (MFI), titration 0.05-100 nM on CRTH2R cells against parent cells; no legend on the panel: grey curve taken as the CRTH2R cells, black as the parent cells.
The target of test [3] is T1, CRTH2R. Put plainly: flow cytometry (MFI), CHO CRTH2R-positive cells against parental CHO cells; same panel as in FIG. 15C; grey = CRTH2R cells, black = parental cells (no legend on the panel).
The target in test [4] is T1, CRTH2R. Put plainly: flow cytometry (MFI), CHO CRTH2R-positive cells against parental CHO cells, 3-fold titration from 100 nM; grey = CRTH2R cells, black = parental cells (no legend on the panel).
Test [5] deals with T1, CRTH2R. In words: flow cytometry (MFI), CHO CRTH2R-positive cells against parental CHO cells; same panel as in FIG. 15B; grey = CRTH2R cells, black = parental cells (no legend on the panel).
Test [6] addresses T1, CRTH2R. Put plainly: flow cytometry, gated dot plot at 100 nM IgG (RL1-A APC against BL1-A FITC).
Test [7] has as its target T1, CRTH2R. In words: flow cytometry, APC histogram at 100 nM IgG.
For test [8], the target named is T1, CRTH2R. Put plainly: flow cytometry (MFI), CHO CRTH2R-positive cells against parental CHO cells; same panel as in FIG. 15D; grey = CRTH2R cells, black = parental cells (no legend on the panel).
For test [9], the target named is T1, CRTH2R. Put plainly: flow cytometry (MFI), CHO CRTH2R-positive cells against parental CHO cells; same panel as in FIG. 15E; grey = CRTH2R cells, black = parental cells (no legend on the panel).

B1: CRTH2-41-51 (Fc fusion, not shown: a dimerising Fc or GST)
chain: EVQLVESGGGLVQPGGSLRLSCAASGGIFRFNAMGWFRQAPGKERELVAGISGSGGDTYYADSVKGRFTISADNSKNTAYLQMNSLKPEDTAVYYCAAFRGIMRPDWGQGTLVTVSS
As for B1, the binding result in [1] and in test [2] was “binds” throughout.

B2: CRTH2-32 (antibody, V domains shown)
VH: QVQLVESGGGVVQPGRSLRLSCAASGFTFSKHGMHWVRQAPGKGLEWVAFISYEGSEKYYADSVKGRFTISRDNSKNTLYLQMNSLRAEDTAVYYCARDMYYDFHYSTVGATYYYYLGSETEVVPADDAFDIWGQGTLVTVSS
VL: QSALTQPASVSGSPGQSITISCTGTSSGVGGYDYVSWYQQHPGKAPKLMIYDDNNRPSGVSNRFSGSKSGNTASLTISGLQAEDEADYYCSSYTGSSTLYVFGGGTKLTVL
Consider B2, for which the binding entry in test [3] and in test [4] was “binds” in each case.

B3: CRTH2-45 (antibody)
VH: QVQLVESGGGVVQPGRSLRLSCAASGFTFSHYAMHWVRQAPGKGLEWVADISHEGSNKYYADSVKGRFTISRDNSKNTLYLQMNSLRAEDTAVYYCARDGRGSLPRPKGGPTSGGGFSTNIGYGFVVQSYDSSEDSGGAFDIWGQGTLVTVSS
VL: QSVLTQPPSVSAAPGQKVTISCSGTSSNIENNYVSWYQQLPGTAPKLLIYDNVKRPSGIPDRFSGSKSGTSATLGITGLQTGDEADYYCGTWDNTVSAPWVFGGGTKLTVL
Regarding B3, the binding result in test [4] is reported as “binds”.

B4: CRTH2-27 (antibody, V domains shown)
VH: QVQLVESGGGVVQPGRSLRLSCAASGFTFDNYGMHWVRQAPGKGLEWVAVISYEGSNKKYADSVKGRFTISRDNSKNTLYLQMNSLRAEDTAVYYCARDMYYDFGSIYGEDVVGELPEVVPADDAFDIWGQGTLVTVSS
VL: QSALTQPASVSGSPGQSITISCTGTSNDVGAYNFVSWYQQHPGKAPKLMIYDISNRPSGVSNRFSGSKSGNTASLTISGLQAEDEADYYCSSYTRSNTRVFGGGTKLTVL
B4: the binding entry in test [5], in test [6], in test [7] and in test [4] was “binds” in each case.

B5: CRTH2 25 (antibody, V domains shown)
VH: QVQLVQSGAEVKKPGSSVKVSCKASGGSFRSYGISWVRQAPGQGLEWMGRIIPLFGTPDYAQKFQGRVTITADESTSTAYMELSSLRSEDTAVYYCARDMYYDFEDVDEGSLYLDMGRTFEVVPADDAFDIWGQGTLVTVSS
VL: DIQMTQSPSSLSASVGDRVTITCRASQGISTYLNWYQQKPGKAPKLLIYATSSLQSGVPSRFSGSGSGTDFTLTISSLQPEDFATYYCQQSYSTPWTFGGGTKVEIK
Consider B5, for which the binding entry in [4] is given as “binds”.

B6: CRTH2-74 (antibody)
VH: QVQLVESGGGVVQPGRSLRLSCAASGFSFSEYGIHWVRQAPGKGLEWVAVISYEGSNEYYADSVKGRFTISRDNSKNTLYLQMNSLRAEDTAVYYCARANQHFGPVAGGATPSEEPGSQLTRAELGWDAPPGQESLADELLQLGTEHGYHYYGMDVWGQGTLVTVSS
VL: QSVLTQPPSVSAAPGQKVTISCSGSTSNIGKNYVSWYQQLPGTAPKLLIYDDDERPSGIPDRFSGSMSGTSATLGITGLQTGDEADYYCEAWDADLSGAVFGGGTKLTVL
As for B6, in test [4], the binding entry is “binds”.

B7: CRTH2-8 (antibody, V domains shown)
VH: QVQLVQSGAEVKKPGSSVKVSCKASGGTFTDYAISWVRQAPGQGLEWMGGIIPFFGSPNYAQKFQGRVTITADESTSTAYMELSSLRSEDTAVYYCARDMYYDFAAGLEGTITEVFDEEGHQGGTEVVPADDAFDIWGQGTLVTVSS
VL: QSVLTQPPSVSAAPGQKVTISCSGSSSNIGKNYVSWYQQLPGTAPKLLIYDNNQRPSGIPDRFSGSKSGTSATLGITGLQTGDEADYYCGTWDTSLTSVVFGGGTKLTVL
For the molecule B7, in test [4], the binding entry was “binds”.

B8: CRTH2-15 (antibody, V domains shown)
VH: QVQLVQSGAEVKKPGSSVKVSCKASGGTFSTYAIDWVRQAPGQGLEWMGGIIPLFGSPNYAQKFQGRVTITADESTSTAYMELSSLRSEDTAVYYCARANQHFFLYEGTSSSWLHVGHARYGYHYYGMDVWGQGTLVTVSS
VL: B7 VL with S26G, K31S, N53I, Q54R, G90A, T91A, S95R, T97S, S98A, V99G
Consider B8, for which, in test [4], the binding entry is recorded as “binds”.

B9: CRTH2 57 (antibody, V domains shown)
VH: QVQLVQSGAEVKKPGSSVKVSCKASGGTFSSYAMSWVRQAPGQGLEWMGGIIPLFGTTDYAQKFQGRVTITADESTSTAYMELSSLRSEDTAVYYCARANQHFVKIQGAPVSTPVPGFGTTGYHYYGMDVWGQGTLVTVSS
VL: B7 VL with G30E, K31D, N53F, Q54K, T97S, S98A, V99A, V100L
With B9, the binding result in test [4] was “binds”.

B10: CRTH2-24 (antibody, V domains shown)
VH: QVQLVQSGAEVKKPGSSVKVSCKASGGSFSNYGISWVRQAPGQGLEWMGGIIPLIGTANYAQKFQGRVTITADESTSTAYMELSSLRSEDTAVYYCARDMYYDFTLGPQSIGPLGEVVPADDAFDIWGQGTLVTVSS
VL: QSVLTQPPSVSAAPGQKVTISCSGSSSNIGNNFVSWYQQLPGTAPKLLIYDNIQRPSGIPDRFSGSKSGTSATLGITGLQTGDEADYYCGTWDTSLSAVVFGGGTKLTVLR
For the molecule B10, the binding result in test [4] is on record as “binds”.

B11: CRTH2 35 (antibody, V domains shown)
VH: QVQLVQSGAEVKKPGSSVKVSCKASGGTFRSYAISWVRQAPGQGLEWMGGIIPISGTTNYAQKFQGRVTITADESTSTAYMELSSLRSEDTAVYYCARANQHFTRIFGNYQIYFGHFGYHYYGMDVWGQGTLVTVSS
VL: QSALTQPASVSGSPGQSITISCTGTSSDIGGYEFVSWYQQHPGKAPKLMIYGVSRRPSGVSNRFSGSKSGNTASLTISGLQAEDEADYYCGSYTSSSTPYVFGGGTKLTVL
With B11, the binding result in [4] was “binds”.

B12: CRTH2-42 (antibody)
VH: QVQLVESGGGVVQPGRSLRLSCAASGFAFSSYAMHWVRQAPGKGLEWVAVISYEGSNEYYADSVKGRFTISRDNSKNTLYLQMNSLRAEDTAVYYCARDLRELECEEWTVLQYGKFHMRWAESGEGSLSRGPCVDPRGVAGSFDVWGQGTLVTVSS
VL: B2 VL with G28D, D33R, D52N, D53V, N55Y, T94R, G95S, Y100G
On to B12, for which the binding result in test [8] and in test [4] was “binds” each time.

B13: CRTH2-50 (antibody, V domains shown)
VH: QVQLVQSGAEVKKPGSSVKVSCKASGGTFSSYALSWVRKAPGQGLEWMGGTIPIFGTVNYAQKFQGRVTITADESTSTAYMELSSLRSEDTAVYYCARANQHFTRVIGQPSPAVPSRGYIYHGYHYYGMDVWGQGTLVTVSS
VL: B11 VL with E33N, G52D, R55N, S58Q, G91S, S97N, P99Y, Y100V
With B13, the binding result in [4] and in test [9] was “binds” in each case.

B14: CRTH2-19 (antibody, V domains shown)
VH: QVQLVQSGAEVKKPGSSVKVSCKASGGTFSSHAINWVRQAPGQGLEWMGRIIPIVGTTTYAQKFQGRVTITADESTSTAYMELSSLRSEDTAVYYCARDMYYDFDYFGLTLTGDRNDDEVVPADDAFDIWGQGTLVTVSS
VL: QSALTQPASVSGSPGQSITISCTGTSSDVGGYDYVTWYQQHPGKAPKLMIYDVDTRPSGVSNRFSGSKSGNTASLTISGLQAEDEADYYCSSYTTSTSYVFGGGTKLTVL
In the case of B14, the binding entry in test [4] is recorded as “binds”.

B15: CRTH2 66 (antibody)
heavy chain (variable domain given): QVQLVESGGGVVQPGRSLRLSCAASGFDFSGYGMHWVRQAPGKGLEWVAVISYEGSNKFYADSVKGRFTISRDNSKNTLYLQMNSLRAEDTAVYYCARDLRELECEEWTIEVHGQEFAVHQDRGGVFSRGPCVDPRGVAGSFDVWGQGTLVTVSS
light chain (variable domain given): EIVMTQSPATLSVSPGERATLSCRASQGVGSNLAWYQQKPGQAPRLLIYRTSIRATGIPARFSGSGSGTEFTLTISSLQSEDFAVYYCQQYYSWPPLTFGGGTKVEIK
As to B15, the binding result in [4] is listed as “binds”.

B16: CRTH2 39 (antibody, V domains shown)
VH: QVQLVQSGAEVKKPGSSVKVSCKASVDTFSRYSISWVRQAPGQGLEWMGGIIPVFDTTNYAQKFQGRVTITADESTSTAYMELSSLRSEDTAVYYCARDMYYDFGVILGGTAVGTNNGSANEVVPADDAFDIWGQGTLVTVSS
VL: QSVLTQPPSVSAAPGQKVTISCSGSSSNIGDNDVSWYQQLPGTAPKLLIYDDDKRPSGIPDRFSGSKSGTSATLGITGLQTGDEADYYCASWDTSLSGGYVFGGGTKLTVL
In the case of B16, the binding entry in test [4] is recorded as “binds”.

Source of the values: US20210102195A1.
